Data taken from paper PMC5008367.

Columns and labels:
[1] = target: T1, CCP6-mut (cytosolic carboxypeptidase 6, H230S/E233Q, enzymatically inactive), immobilized on Affi-gel10 resin (human) (UniProt Q5VU57); assay: affinity purification with mass spectrometry; CCP6-mut immobilized to Affi-gel10 resin, mixed with serum samples from three RCC patients, each on its own; mass spectrometry; only the target purified
T1 sequence: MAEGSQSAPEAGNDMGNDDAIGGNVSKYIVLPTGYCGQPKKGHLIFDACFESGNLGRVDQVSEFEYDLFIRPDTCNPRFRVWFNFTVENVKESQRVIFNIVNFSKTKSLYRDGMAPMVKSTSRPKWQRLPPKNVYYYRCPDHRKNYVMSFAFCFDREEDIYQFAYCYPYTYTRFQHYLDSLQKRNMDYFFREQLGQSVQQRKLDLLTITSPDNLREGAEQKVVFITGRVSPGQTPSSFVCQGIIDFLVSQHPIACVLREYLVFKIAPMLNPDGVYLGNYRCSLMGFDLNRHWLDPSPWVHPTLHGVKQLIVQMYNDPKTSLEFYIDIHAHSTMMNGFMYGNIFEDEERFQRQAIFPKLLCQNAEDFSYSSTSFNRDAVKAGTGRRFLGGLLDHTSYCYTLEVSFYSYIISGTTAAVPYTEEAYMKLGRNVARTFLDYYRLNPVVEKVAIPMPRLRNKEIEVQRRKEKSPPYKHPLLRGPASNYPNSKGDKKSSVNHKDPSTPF

[2] = target: T1, CCP6-mut (cytosolic carboxypeptidase 6, H230S/E233Q, enzymatically inactive), immobilized on Affi-gel10 resin (human); assay: affinity purification with mass spectrometry; CCP6-wt and CCP6-mut immobilized with Affi-gel10 resin; kidney lysates from CCP6-deficient and control mice passed through; eluted fractions on SDS-PAGE with silver staining; differential bands digested with trypsin, nano LC-ESI-LTQ MS/MS; only the target purified

B1: DNAJC7 in serum of RCC patients (protein, UniProt Q99615 1-494)
chain: MAAAAECDVVMAATEPELLDDQEAKREAETFKEQGNAYYAKKDYNEAYNYYTKAIDMCPKNASYYGNRAATLMMLGRFREALGDAQQSVRLDDSFVRGHLREGKCHLSLGNAMAACRSFQRALELDHKNAQAQQEFKNANAVMEYEKIAETDFEKRDFRKVVFCMDRALEFAPACHRFKILKAECLAMLGRYPEAQSVASDILRMDSTNADALYVRGLCLYYEDCIEKAVQFFVQALRMAPDHEKACIACRNAKALKAKKEDGNKAFKEGNYKLAYELYTEALGIDPNNIKTNAKLYCNRGTVNSKLRKLDDAIEDCTNAVKLDDTYIKAYLRRAQCYMDTEQYEEAVRDYEKVYQTEKTKEHKQLLKNAQLELKKSKRKDYYKILGVDKNASEDEIKKAYRKRALMHHPDRHSGASAEVQKEEEKKFKEVGEAFTILSDPKKKTRYDSGQDLDEEGMNMGDFDPNNIFKAFFGGPGGFSFEASGPGNFFFQFG
modifications: polyglutamylated in RCC sera (GT335 signal); sites not stated
Question: Which binding [1] does the source give for B1 here?
Answer: Its binding is “binds”.

B2: DNAJC7 in mouse kidney lysates (protein, UniProt Q9QYI3 1-494)
chain: MAATAECDVVMAATEPELLEDEDAKREAESFKEQGNAYYAKKDYNEAYNYYTKAIDMCPNNASYYGNRAATLMMLGRFREALGDAQQSVRLDDSFVRGHLREGKCHLSLGNAMAACRSFQRALELDHKNAQAQQEFKNANAVMEYEKIAEVDFEKRDFRKVVFCMDRALEFAPACHRFKILKAECLAMLGRYPEAQFVASDILRMDSTNADALYVRGLCLYYEDCIEKAVQFFVQALRMAPDHEKACVACRNAKALKAKKEDGNKAFKEGNYKLAYELYTEALGIDPNNIKTNAKLYCNRGTVNSKLRQLEDAIEDCTNAVKLDDTYIKAYLRRAQCYMDTEQFEEAVRDYEKVYQTEKTKEHKQLLKNAQLELKKSKRKDYYKILGVDKNASEDEIKKAYRKRALMHHPDRHSGASAEVQKEEEKKFKEVGEAFTILSDPKKKTRYDSGQDLDEEGMNMGDFDANNIFKAFFGGPGGFSFEASGPGNFYFQFG
Question: For B2, which binding [2] is on record?
Answer: Its binding is “binds”.

Results are given in words; binding and its absence hold for the method and conditions named. In cells and extracts the contact can be indirect. These calls come from enrichment with a bait or labelling near it, and not all partners need be listed.
